Measurements reported in PubChem BioAssay AID1259274 (Sanger Institute, 2017)
Test: 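Kinases RKO cells need to grow, alone or with anchor drugs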 (primary screen). System: human RKO colorectal cancer cells. Knock-down reagent: siRNA pool against human genes. Treatment: anchor drugs BYL719 at 1 µM, cetuximab at 5 µg/ml or trametinib at 10 nM; DMSO vehicle as the no-drug arm. Detection: 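Viability of cells versus control pool 2 (non-targeting) averaged across replicates; knock-down-only robust z-score; for every anchor drug (BYL719, cetuximab, trametinib) a synergy score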. Reading the numbers: viability z-score, siRNA alone: higher = more viable cells; low values mean essential gene; viability, siRNA alone, vehicle: higher = more viable cells; synergy score with BYL719 and synergy score with Trametinib and synergy score with Cetuximab: higher = stronger combined killing with the drug. Active means: 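a single knock-down scoring under -3 on the robust z-score, meaning fewer cells, counts as essential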. Calls: active = essential when knocked down alone; inactive = no change alone.
The deposit covers 794 reagents; below is a random part of them. In the full data, 11 (1.4%) were called active. 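Calls rest on knock-down without drug only; synergy scores with anchor drugs were not used for the essential call.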 Unmarked entries are inactive. The numbers tell different reagents against one gene apart. No viability above 1 is reported: the scale is capped. Not stated in the record: the amount of reagent, the time to read-out.

| viability z-score, siRNA alone | viability, siRNA alone, vehicle (fraction of control) | synergy score with BYL719 | synergy score with Trametinib | synergy score with Cetuximab | Target gene | reagent no. |
| --- | --- | --- | --- | --- | --- | --- |
| 0.693 | 0.957 | -0.128 | -0.2 | 0.00769 | AURKC (aurora kinase C) | 1 |
| -1.18 | 0.797 | -0.228 | -0.222 | -0.203 | WNK1 (WNK lysine deficient protein kinase 1) | 1 |
| 0.294 | 0.923 | 0.00756 | -0.0516 | -0.0768 | CAMKV (CaM kinase like vesicle associated) | 1 |
| 0.257 | 0.92 | -0.0433 | -0.291 | -0.08 | CKS2 (CDC28 protein kinase regulatory subunit 2) | 1 |
| -0.568 | 0.849 | -0.145 | -0.0309 | -0.114 | EPHA7 (EPH receptor A7) | 1 |
| 1.19 | 1 | -0.0675 | -0.0157 | 0.0439 | KRAS (KRas proto-oncogene, GTPase) | 1 |
| 0.114 | 0.908 | -0.0391 | -0.0598 | 0.0454 | PIM1 (Pim-1 proto-oncogene, serine/threonine kinase) | 1 |
| -1.89 | 0.736 | -0.00298 | -0.197 | -0.177 | PKIA (cAMP-dependent protein kinase inhibitor alpha) | 1 |
| -0.724 | 0.836 | -0.0936 | -0.278 | -0.164 | DIS3 (DIS3 exosome endoribonuclease and 3'-5' exoribonuclease) | 1 |
| -0.538 | 0.852 | -0.121 | -0.181 | -0.0228 | STK36 (serine/threonine kinase 36) | 1 |
| 1.19 | 1 | 0.024 | -0.101 | 0 | ELP1 (elongator acetyltransferase complex subunit 1) | 1 |
| -0.0779 | 0.891 | 0.000969 | -0.188 | -0.109 | IPMK (inositol polyphosphate multikinase) | 1 |
| -0.434 | 0.861 | 0.026 | -0.0432 | 0.0149 | RPS6KA6 (ribosomal protein S6 kinase A6) | 1 |
| 0.477 | 0.939 | -0.0464 | -0.221 | -0.0154 | CHKB (choline kinase beta) | 1 |
| 1.19 | 1 | -0.128 | -0.211 | 0.00535 | PAPSS1 (3'-phosphoadenosine 5'-phosphosulfate synthase 1) | 1 |
| 0.755 | 0.963 | 0.0229 | -0.133 | 0.0551 | PIP5K1C (phosphatidylinositol-4-phosphate 5-kinase type 1 gamma) | 1 |
| 0.776 | 0.964 | -0.0887 | -0.188 | -0.0355 | MAP2K1 (mitogen-activated protein kinase kinase 1) | 1 |
| -1.15 | 0.8 | 0.0461 | -0.194 | -0.0701 | AAK1 (AP2 associated kinase 1) | 1 |
| 0.871 | 0.973 | -0.101 | -0.0788 | -0.0274 | CAMK1G (calcium/calmodulin dependent protein kinase IG) | 1 |
| 0.0872 | 0.905 | -0.0957 | -0.114 | -0.023 | ILK (integrin linked kinase) | 1 |
| -1.23 | 0.793 | -0.0966 | -0.155 | 0.00321 | ILK (integrin linked kinase) | 2 |
| 1.19 | 1 | -0.0324 | -0.182 | 0 | CERT1 (ceramide transporter 1) | 1 |
| 0.301 | 0.924 | -0.119 | -0.18 | -0.0607 | EPHB1 (EPH receptor B1) | 1 |
| 0.416 | 0.934 | 0.0189 | -0.123 | -0.0381 | TRIO (trio Rho guanine nucleotide exchange factor) | 1 |
| -0.214 | 0.88 | -0.0871 | -0.0884 | -0.111 | ERN2 (endoplasmic reticulum to nucleus signaling 2) | 1 |
| -2.14 | 0.715 | -0.0323 | 0.00174 | -0.0267 | NR4A2 (nuclear receptor subfamily 4 group A member 2) | 1 |
| -0.0388 | 0.895 | -0.0698 | -0.0078 | -0.0604 | PRAG1 (PEAK1 related, kinase-activating pseudokinase 1) | 1 |
| -0.102 | 0.889 | -0.0867 | -0.198 | -0.0569 | AXIN2 (axin 2) | 1 |
| -0.987 | 0.813 | -0.17 | -0.163 | -0.162 | ADPGK (ADP dependent glucokinase) | 1 |
| -3.19 (active) | 0.625 | -0.107 | -0.0289 | -0.0481 | TTK (TTK protein kinase) | 1 |
| -0.225 | 0.879 | -0.0503 | -0.298 | -0.121 | CDKN2B (cyclin dependent kinase inhibitor 2B) | 1 |
| -0.651 | 0.842 | -0.113 | -0.221 | -0.0623 | MAP3K8 (mitogen-activated protein kinase kinase kinase 8) | 1 |
| -1.6 | 0.761 | -0.108 | -0.0385 | -0.0722 | CSF1R (colony stimulating factor 1 receptor) | 1 |
| -0.172 | 0.883 | 0.0334 | -0.0539 | -0.0182 | ASPM (assembly factor for spindle microtubules) | 1 |
| 0.168 | 0.912 | 0.103 | 0.0891 | 0.0558 | MAP3K9 (mitogen-activated protein kinase kinase kinase 9) | 1 |
| 0.172 | 0.913 | -0.0443 | -0.0736 | -0.0287 | CAMK4 (calcium/calmodulin dependent protein kinase IV) | 1 |
| 1.19 | 1 | -0.049 | -0.168 | 0 | RTN4 (reticulon 4) | 1 |
| 0.17 | 0.913 | -0.139 | -0.157 | -0.0657 | DCLK3 (doublecortin like kinase 3) | 1 |
| 1.19 | 1 | -0.0751 | -0.136 | 0 | TYK2 (tyrosine kinase 2) | 1 |
| 0.58 | 0.948 | -0.0498 | -0.146 | -0.0523 | CASP8 (caspase 8) | 1 |
| 0.806 | 0.967 | 0.11 | -0.128 | 0.117 | MAPK7 (mitogen-activated protein kinase 7) | 1 |
| -0.61 | 0.846 | -0.081 | -0.279 | -0.0811 | WHR1 (winged helix repair factor 1) | 1 |
| 1.19 | 1 | -0.0783 | -0.116 | 0.0266 | TGFBR1 (transforming growth factor beta receptor 1) | 1 |
| -0.418 | 0.862 | -0.0492 | -0.381 | -0.137 | TRIM27 (tripartite motif containing 27) | 1 |
| -1.14 | 0.801 | -0.273 | -0.135 | -0.199 | MAPK14 (mitogen-activated protein kinase 14) | 1 |
| 0.46 | 0.937 | 0.0295 | -0.0783 | -0.0298 | GCK (glucokinase) | 1 |
| 0.761 | 0.963 | -0.0413 | -0.142 | 0.0464 | PAK4 (p21 (RAC1) activated kinase 4) | 1 |
| -0.925 | 0.819 | -0.0297 | -0.0223 | -0.0774 | NLK (nemo like kinase) | 1 |
| 0.39 | 0.931 | -0.115 | -0.0958 | -0.0686 | MINK1 (misshapen like kinase 1) | 1 |
| 1.17 | 0.998 | 0.000997 | -0.297 | 0.0838 | PSKH1 (protein serine kinase H1) | 1 |

Part of the list above, set out differently.
{"Target gene":"MAPK7 (mitogen-activated protein kinase 7)","reagent no.":1,"viability z-score, siRNA alone":0.806,"viability, siRNA alone, vehicle (fraction of control)":0.967,"synergy score with BYL719":0.11,"synergy score with Trametinib":-0.128,"synergy score with Cetuximab":0.117}
{"Target gene":"WHR1 (winged helix repair factor 1)","reagent no.":1,"viability z-score, siRNA alone":-0.61,"viability, siRNA alone, vehicle (fraction of control)":0.846,"synergy score with BYL719":-0.081,"synergy score with Trametinib":-0.279,"synergy score with Cetuximab":-0.0811}
{"Target gene":"TGFBR1 (transforming growth factor beta receptor 1)","reagent no.":1,"viability z-score, siRNA alone":1.19,"viability, siRNA alone, vehicle (fraction of control)":1,"synergy score with BYL719":-0.0783,"synergy score with Trametinib":-0.116,"synergy score with Cetuximab":0.0266}
